Results: publication PMC4726734
No constants are given. Whether binding was seen depends on the method and setting. Some binding calls cover weakened binding; strength is not graded here.

Sequences of proteins named here, by UniProt entry; tags and fusion partners are left off. A change or cut given only in a name is not applied to a line headed by its entry.
UniProt O00716: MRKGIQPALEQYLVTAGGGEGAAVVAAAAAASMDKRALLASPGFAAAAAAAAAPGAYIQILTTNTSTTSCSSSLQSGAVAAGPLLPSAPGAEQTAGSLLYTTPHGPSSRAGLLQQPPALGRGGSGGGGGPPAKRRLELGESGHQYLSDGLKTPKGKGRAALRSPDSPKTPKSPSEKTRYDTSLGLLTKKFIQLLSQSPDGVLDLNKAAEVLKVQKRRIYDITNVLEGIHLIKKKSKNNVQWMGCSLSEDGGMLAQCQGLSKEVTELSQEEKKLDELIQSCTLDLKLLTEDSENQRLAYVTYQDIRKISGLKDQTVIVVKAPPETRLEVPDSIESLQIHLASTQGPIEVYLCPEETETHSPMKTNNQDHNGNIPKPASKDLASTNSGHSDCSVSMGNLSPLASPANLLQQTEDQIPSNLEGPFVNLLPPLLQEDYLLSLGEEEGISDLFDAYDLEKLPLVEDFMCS
UniProt Q16254: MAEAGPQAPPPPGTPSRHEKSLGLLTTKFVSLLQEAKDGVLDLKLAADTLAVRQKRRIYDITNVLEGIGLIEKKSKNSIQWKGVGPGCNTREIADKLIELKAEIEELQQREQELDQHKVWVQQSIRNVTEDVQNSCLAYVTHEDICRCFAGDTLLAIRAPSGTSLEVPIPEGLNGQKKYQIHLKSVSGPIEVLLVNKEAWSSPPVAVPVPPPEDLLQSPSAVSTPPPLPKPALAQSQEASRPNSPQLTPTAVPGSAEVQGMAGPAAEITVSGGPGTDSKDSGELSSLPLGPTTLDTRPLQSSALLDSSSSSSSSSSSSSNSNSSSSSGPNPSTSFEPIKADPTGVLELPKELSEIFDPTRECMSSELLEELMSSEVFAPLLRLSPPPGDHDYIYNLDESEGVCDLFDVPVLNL

How the values were obtained:
Test in all cases: native gel or EMSA; nuclear extract from HDF-TERT cells (untreated or treated with IFNα or IFNγ for 24 hr) with a 32P-labeled DNA probe (E1A-ENH, Ad5 nt 271-288); composition of the DNA-protein complexes identified with specific antibodies to E2F, DP and Rb family members
[1] = biological target: E2F3 (human (endogenous in HDF-TERT)) (UniProt O00716)
[2] = biological target: E2F-4 (human (endogenous in HDF-TERT)) (UniProt Q16254)
[3] = biological target: E2F-4 (human (endogenous in HDF-TERT)), Q16254; settings: remark: other sources report otherwise

B1: Rb (protein, UniProt P06400 1-928)
chain: MPPKTPRKTAATAAAAAAEPPAPPPPPPPEEDPEQDSGPEDLPLVRLEFEETEEPDFTALCQKLKIPDHVRERAWLTWEKVSSVDGVLGGYIQKKKELWGICIFIAAVDLDEMSFTFTELQKNIEISVHKFFNLLKEIDTSTKVDNAMSRLLKKYDVLFALFSKLERTCELIYLTQPSSSISTEINSALVLKVSWITFLLAKGEVLQMEDDLVISFQLMLCVLDYFIKLSPPMLLKEPYKTAVIPINGSPRTPRRGQNRSARIAKQLENDTRIIEVLCKEHECNIDEVKNVYFKNFIPFMNSLGLVTSNGLPEVENLSKRYEEIYLKNKDLDARLFLDHDKTLQTDSIDSFETQRTPRKSNLDEEVNVIPPHTPVRTVMNTIQQLMMILNSASDQPSENLISYFNNCTVNPKESILKRVKDIGYIFKEKFAKAVGQGCVEIGSQRYKLGVRLYYRVMESMLKSEEERLSIQNFSKLLNDNIFHMSLLACALEVVMATYSRSTSQNLDSGTDLSFPWILNVLNLKAFDFYKVIESFIKAEGNLTREMIKHLERCEHRIMESLAWLSDSPLFDLIKQSKDREGPTDHLESACPLNLPLQNNHTAADMYLSPVRSPKKKGSTTRVNSTANAETQATSAFQTQKPLKSTSLSLFYKKVYRLAYLRLNTLCERLLSEHPELEHIIWTLFQHTLQNEYELMRDRHLDQIMMCSMYGICKVKNIDLKFKIIVTAYKDLPHAVQETFKRVLIKEEEYDSIIVFYNSVFMQRLKTNILQYASTRPPTLSPIPHIPRSPYKFPSSPLRIPGGNIYISPLKSPYKISEGLPTPTKMTPRSRILVSIGESFGTSEKFQKINQMVCNSDRVLKRSAEGSNPPKPLKKLRFDIEGSDEADGSKHLPGESKFQQKLAEMTSTRTRMQKQKMNDSMDTSNKEEK
[1]
  binding: binds

B2: p107 (protein, UniProt P28749 1-1068)
chain: MFEDKPHAEGAAVVAAAGEALQALCQELNLDEGSAAEALDDFTAIRGNYSLEGEVTHWLACSLYVACRKSIIPTVGKGIMEGNCVSLTRILRSAKLSLIQFFSKMKKWMDMSNLPQEFRERIERLERNFEVSTVIFKKYEPIFLDIFQNPYEEPPKLPRSRKQRRIPCSVKDLFNFCWTLFVYTKGNFRMIGDDLVNSYHLLLCCLDLIFANAIMCPNRQDLLNPSFKGLPSDFHTADFTASEEPPCIIAVLCELHDGLLVEAKGIKEHYFKPYISKLFDRKILKGECLLDLSSFTDNSKAVNKEYEEYVLTVGDFDERIFLGADAEEEIGTPRKFTRDTPLGKLTAQANVEYNLQQHFEKKRSFAPSTPLTGRRYLREKEAVITPVASATQSVSRLQSIVAGLKNAPSDQLINIFESCVRNPVENIMKILKGIGETFCQHYTQSTDEQPGSHIDFAVNRLKLAEILYYKILETVMVQETRRLHGMDMSVLLEQDIFHRSLMACCLEIVLFAYSSPRTFPWIIEVLNLQPFYFYKVIEVVIRSEEGLSRDMVKHLNSIEEQILESLAWSHDSALWEALQVSANKVPTCEEVIFPNNFETGNGGNVQGHLPLMPMSPLMHPRVKEVRTDSGSLRRDMQPLSPISVHERYSSPTAGSAKRRLFGEDPPKEMLMDKIITEGTKLKIAPSSSITAENVSILPGQTLLTMATAPVTGTTGHKVTIPLHGVANDAGEITLIPLSMNTNQESKVKSPVSLTAHSLIGASPKQTNLTKAQEVHSTGINRPKRTGSLALFYRKVYHLASVRLRDLCLKLDVSNELRRKIWTCFEFTLVHCPDLMKDRHLDQLLLCAFYIMAKVTKEERTFQEIMKSYRNQPQANSHVYRSVLLKSIPREVVAYNKNINDDFEMIDCDLEDATKTPDCSSGPVKEERGDLIKFYNTIYVGRVKSFALKYDLANQDHMMDAPPLSPFPHIKQQPGSPRRISQQHSIYISPHKNGSGLTPRSALLYKFNGSPSKSLKDINNMIRQGEQRTKKRVIAIDSDAESPAKRVCQENDDVLLKRLQDVVSERANH
[2]
  binding: binds

B3: p130, Q08999 1-1139 (protein)
chain: MPSGGDQSPPPPPPPPAAAASDEEEEDDGEAEDAAPPAESPTPQIQQRFDELCSRLNMDEAARAEAWDSYRSMSESYTLEGNDLHWLACALYVACRKSVPTVSKGTVEGNYVSLTRILKCSEQSLIEFFNKMKKWEDMANLPPHFRERTERLERNFTVSAVIFKKYEPIFQDIFKYPQEEQPRQQRGRKQRRQPCTVSEIFHFCWVLFIYAKGNFPMISDDLVNSYHLLLCALDLVYGNALQCSNRKELVNPNFKGLSEDFHAKDSKPSSDPPCIIEKLCSLHDGLVLEAKGIKEHFWKPYIRKLYEKKLLKGKEENLTGFLEPGNFGESFKAINKAYEEYVLSVGNLDERIFLGEDAEEEIGTLSRCLNAGSGTETAERVQMKNILQQHFDKSKALRISTPLTGVRYIKENSPCVTPVSTATHSLSRLHTMLTGLRNAPSEKLEQILRTCSRDPTQAIANRLKEMFEIYSQHFQPDEDFSNCAKEIASKHFRFAEMLYYKVLESVIEQEQKRLGDMDLSGILEQDAFHRSLLACCLEVVTFSYKPPGNFPFITEIFDVPLYHFYKVIEVFIRAEDGLCREVVKHLNQIEEQILDHLAWKPESPLWEKIRDNENRVPTCEEVMPPQNLERADEICIAGSPLTPRRVTEVRADTGGLGRSITSPTTLYDRYSSPPASTTRRRLFVENDSPSDGGTPGRMPPQPLVNAVPVQNVSGETVSVTPVPGQTLVTMATATVTANNGQTVTIPVQGIANENGGITFFPVQVNVGGQAQAVTGSIQPLSAQALAGSLSSQQVTGTTLQVPGQVAIQQISPGGQQQKQGQSVTSSSNRPRKTSSLSLFFRKVYHLAAVRLRDLCAKLDISDELRKKIWTCFEFSIIQCPELMMDRHLDQLLMCAIYVMAKVTKEDKSFQNIMRCYRTQPQARSQVYRSVLIKGKRKRRNSGSSDSRSHQNSPTELNKDRTSRDSSPVMRSSSTLPVPQPSSAPPTPTRLTGANSDMEEEERGDLIQFYNNIYIKQIKTFAMKYSQANMDAPPLSPYPFVRTGSPRRIQLSQNHPVYISPHKNETMLSPREKIFYYFSNSPSKRLREINSMIRTGETPTKKRGILLEDGSESPAKRICPENHSALLRRLQDVANDRGSH
[3]
  binding: binds
